PubChem BioAssay AID504784 | Drosophila RNAi Screening Center, 2011
Screen: 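Fly genes whose silencing alters how much lipid cells keep in droplets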 (primary screen). Cells: Drosophila Kc167 embryonic cells. Reagent: long dsRNA against Drosophila genes, about 250 ng dsRNA per well. Timing: 4 days. Challenge: cells fed 400 µM oleic acid bound to BSA. Measured: 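Cells imaged and segmented; ratio of lipid droplet area to nuclear area, log-transformed, then normalised as a B-score over the screen; higher means more stored lipid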. Direction: droplet/nuclear area B-score: higher = more stored lipid (overstorage).
The screen tested about 17,000 reagents; below is an unselected part of those that have a named target and a result. 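Each column is one replicate's B-score; the combined score over replicates was not deposited, so single values may mislead.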 The numbers tell different reagents against one gene apart. A plus sign joins genes that one reagent is predicted to hit. Not all columns of the deposit are shown.

With Rx (GeneID 37367) #1, how do the results read?
droplet/nuclear area B-score, replicate 1: 2.3

Which result is listed for Rx (GeneID 37367) #2?
droplet/nuclear area B-score, replicate 1: -0.335

With CG15891 + CG15892 #1, how do the results read?
droplet/nuclear area B-score, replicate 1: 2.57

With CG15891 + CG15892 #2, what does the deposit list?
droplet/nuclear area B-score, replicate 1: -0.0678

With MKP-4 (GeneID 32963), how do the results read?
droplet/nuclear area B-score, replicate 1: 0.00417

Which result is listed for DNaseII (GeneID 48228)?
droplet/nuclear area B-score, replicate 1: 1.46

For Abcd1 (GeneID 43772), how do the results read?
droplet/nuclear area B-score, replicate 1: -0.547

Which result is listed for Tgt (GeneID 33307)?
droplet/nuclear area B-score, replicate 1: 3.68

For CG33346 (GeneID 2768690), what does the deposit list?
droplet/nuclear area B-score, replicate 1: 0

For mahj (GeneID 37462), what was measured?
droplet/nuclear area B-score, replicate 1: -0.396

With Ice1 (GeneID 37701), what was measured?
droplet/nuclear area B-score, replicate 1: 0.328

What did the screen give for CG17996 + Tsen2?
droplet/nuclear area B-score, replicate 1: 0.281

What is on record for Mf (GeneID 41824)?
droplet/nuclear area B-score, replicate 1: 0.0397

What is on record for Vps25 (GeneID 35847)?
droplet/nuclear area B-score, replicate 1: 1.79

For Efhc1.1 (GeneID 32528), what does the deposit list?
droplet/nuclear area B-score, replicate 1: -0.68

What is on record for Ubc10 (GeneID 37035)?
droplet/nuclear area B-score, replicate 1: 2.75

With CG3408 (GeneID 39107), how do the results read?
droplet/nuclear area B-score, replicate 1: -1.19

With CG10853 (GeneID 38465), how do the results read?
droplet/nuclear area B-score, replicate 1: -0.26

With Ir7a (GeneID 31686), what was measured?
droplet/nuclear area B-score, replicate 1: -0.144

With CG42299 + CG42300 #1, what does the deposit list?
droplet/nuclear area B-score, replicate 1: -1.17

With CG42299 + CG42300 #2, what does the deposit list?
droplet/nuclear area B-score, replicate 1: -1.57

What did the screen give for RpS28b (GeneID 31897)?
droplet/nuclear area B-score, replicate 1: 4.39

For side-VIII (GeneID 37310) #1, how do the results read?
droplet/nuclear area B-score, replicate 1: -0.00246

For side-VIII (GeneID 37310) #2, what does the deposit list?
droplet/nuclear area B-score, replicate 1: -0.659

What is on record for side-VIII (GeneID 37310) #3?
droplet/nuclear area B-score, replicate 1: 1.22

For side-VIII (GeneID 37310) #4, what does the deposit list?
droplet/nuclear area B-score, replicate 1: -0.006

How did the screen score Rsph9 (GeneID 318950)?
droplet/nuclear area B-score, replicate 1: 0.723
